# Assay results

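Plate-reader measure of the Venus reporter marking one vaccinia stage in infected cells (the cell line is not named here); read time unknown.
The test concentration is not given here.
Percent change in Venus reporter signal; lower (more negative) values mean stronger inhibition of that viral stage.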

Values are in %.
How 0% and 100% were set is not given here.
Common to all entries: measured here: Venus reporter, other viral stage.
Part of the compounds only, not a random draw; the main read-out is not listed here.

compound	activity change (Venus) (%)
C[C@@H]1CN([C@H](C)CO)C(=O)c2cc(NC(=O)CCC(F)(F)F)ccc2O[C@@H](C)CCCCO[C@H]1CN(C)Cc1ccc(C(F)(F)F)cc1	-51.06
C[C@@H]1CCCCO[C@@H](CN(C)C(=O)Cc2ccccc2)[C@H](C)CN([C@@H](C)CO)C(=O)c2cc(NC(=O)c3ccccc3)ccc2O1	-39.24
COc1cccc(-c2ccc3c(c2)O[C@H](CN(C)Cc2cccnc2)[C@H](C)CN([C@H](C)CO)S3(=O)=O)c1	-31.78
CC(C)NC(=O)N1CC(=O)N2[C@H](C1)[C@@H](c1ccc(/C=C/c3ccccc3)cc1)[C@@H]2CO	-18.76
C[C@@H]1CN([C@H](C)CO)C(=O)c2cc(NC(=O)c3ccccc3)ccc2O[C@@H](C)CCCCO[C@@H]1CN(C)Cc1ccc2c(c1)OCO2	-46.76
CC(C)CC#Cc1ccc2c(c1)O[C@H](CN(C)S(=O)(=O)c1ccc(F)cc1)[C@@H](C)CN([C@@H](C)CO)S2(=O)=O	-43.33
c1cncc(-c2ccc(C3[C@@H]4CN(Cc5nccs5)C[C@H]3N4)cc2)c1 (some centres not stated)	-36.67
Cc1ccccc1S(=O)(=O)N1CC[C@@H]2[C@H]1c1cc(-c3ccc(F)cc3)ccc1N(C)[C@H]2CO	-50.71
C[C@@H]1CN([C@@H](C)CO)C(=O)Cc2cc(NC(=O)CCC(F)(F)F)ccc2O[C@H]1CN(C)CC1CCCCC1	-34.03
COc1ccc(S(=O)(=O)N2C[C@H](O)COC[C@H]3O[C@@H](CC(=O)NCc4ccc(Cl)c(Cl)c4)CC[C@@H]32)cc1	-35.29
O=C(C[C@H]1CC[C@H]2[C@@H](COC[C@@H](O)CN2Cc2nccs2)O1)NCc1ccc(Oc2ccccc2)cc1	-29.45
C[C@@H]1CN([C@H](C)CO)C(=O)c2cccc(NC(=O)Nc3ccc(C(F)(F)F)cc3)c2O[C@H]1CN(C)C(=O)Nc1cccc2ccccc12	-30.64
O=C(C[C@@H]1C[C@H]2c3cc(NC(=O)c4ccc5c(c4)OCO5)ccc3O[C@H]2[C@H](CO)O1)NCc1ccc(Oc2ccccc2)cc1	-38.88
C[C@@H]1CN([C@@H](C)CO)C(=O)c2cc(NC(=O)c3ccncc3)ccc2O[C@H]1CN(C)Cc1ccc(Cl)c(Cl)c1	-29.53
C[C@H](CO)N1C[C@H](C)[C@H](CN(C)C(=O)Nc2ccc(C(F)(F)F)cc2)Oc2ncc(C3=CCCC3)cc2C1=O	-26.66
C[C@@H]1CN([C@@H](C)CO)C(=O)c2cc(Br)cnc2O[C@H]1CN(C)Cc1ccc(-c2ccccc2)cc1	-23.5
C[C@@H]1CN([C@@H](C)CO)S(=O)(=O)c2ccc(C#CCC3CCCC3)cc2O[C@@H]1CN(C)C	-52.96
C[C@@H]1CCCCO[C@H](CN(C)Cc2ccc(Cl)c(Cl)c2)[C@H](C)CN([C@@H](C)CO)C(=O)c2cc(NC(=O)C3CCCCC3)ccc2O1	-30.61
C[C@@H]1CCCCO[C@H](CN(C)Cc2ccccc2)[C@@H](C)CN([C@@H](C)CO)C(=O)c2cc(NS(=O)(=O)c3cccs3)ccc2O1	-40.08
C[C@@H]1CN([C@@H](C)CO)C(=O)c2c(c3ccccc3n2C)-c2ccccc2CO[C@H]1CN(C)S(=O)(=O)c1cccc(F)c1	-38.5
COc1ccc(S(=O)(=O)N(C)C[C@@H]2OCCCC[C@H](C)Oc3ccc(NS(=O)(=O)c4c(C)noc4C)cc3C(=O)N([C@H](C)CO)C[C@@H]2C)cc1	-29.51
C[C@@H]1CN([C@H](C)CO)C(=O)c2cc(/C=C/c3ccccc3)cnc2O[C@@H]1CN(C)S(=O)(=O)c1ccc(F)cc1	-26.8
C[C@H]1CN([C@@H](C)CO)S(=O)(=O)c2ccc(Br)cc2O[C@@H]1CN(C)S(=O)(=O)c1ccccc1F	-22.4
COc1ccccc1-c1ccc([C@@H]2[C@@H](C#N)N(C(=O)NC3CCCCC3)[C@@H]2CO)cc1	-22.14
COc1ccc(NC(=O)N(C)C[C@@H]2OCCCC[C@@H](C)Oc3ccc(NS(=O)(=O)c4ccc(C)cc4)cc3C(=O)N([C@H](C)CO)C[C@H]2C)cc1	-25.15
COc1ccc(-c2cnc3c(c2)C(=O)N([C@H](C)CO)C[C@H](C)[C@H](CN(C)C(=O)Nc2ccc4c(c2)OCO4)O3)cc1	-47.22
C[C@@H]1CN([C@H](C)CO)C(=O)c2c(c3ccccc3n2C)-c2ccccc2CO[C@H]1CN(C)Cc1ccccc1C(F)(F)F	-82.44
C[C@@H]1CCCCO[C@@H](CN(C)Cc2ccc(Cl)c(Cl)c2)[C@H](C)CN([C@H](C)CO)C(=O)c2cc(NS(=O)(=O)c3ccc(Cl)cc3)ccc2O1	-32.69
COc1ccc(S(=O)(=O)N2CC[C@@H]3[C@H](CO)N(C)c4ccc(-c5ccc(F)cc5)cc4[C@@H]32)cc1	-61.1
COc1cccc(S(=O)(=O)N2CCC3(CC2)CN(C(=O)Nc2ccc(F)cc2)[C@H](CO)c2[nH]c4cc(OC)ccc4c23)c1	-24.41
O=C(Nc1ccc(F)cc1)N1CC(=O)N2[C@H](CO)[C@@H](c3ccc(-c4ccc(F)cc4)cc3)[C@H]2C1	-24.44
CCC(=O)N1CCCCN2[C@@H](CO)[C@H](c3ccc(C#Cc4ccccc4)cc3)[C@@H]2C1	-45.86
CC(C)CC#Cc1ccc([C@H]2[C@@H](CO)N3C(=O)CN(C(=O)Cc4ccccc4)C[C@H]23)cc1	-68.74
Cc1ccc(S(=O)(=O)N(C)C[C@H]2Oc3cc(C#Cc4ccncc4)ccc3S(=O)(=O)N([C@@H](C)CO)C[C@@H]2C)cc1	-19.1
C[C@H]1CN([C@@H](C)CO)C(=O)c2cc(C#Cc3ccc(F)cc3)cnc2O[C@@H]1CN(C)C(=O)c1ccccc1F	-39.24
Cc1ccc(S(=O)(=O)N(C)C[C@H]2OCCCC[C@H](C)Oc3ccc(NS(=O)(=O)c4c(C)noc4C)cc3C(=O)N([C@@H](C)CO)C[C@H]2C)cc1	-29.07
CCCNC(=O)N1[C@H](C#N)[C@H](c2ccc(-c3cccnc3)cc2)[C@@H]1CO	-43.01

Some entries from above, unchanged:

{"compound": "c1cncc(-c2ccc(C3[C@@H]4CN(Cc5nccs5)C[C@H]3N4)cc2)c1", "stereo": "some centres not stated", "activity change (Venus) (%)": "-36.67"}
{"compound": "COc1ccc(S(=O)(=O)N(C)C[C@@H]2OCCCC[C@H](C)Oc3ccc(NS(=O)(=O)c4c(C)noc4C)cc3C(=O)N([C@H](C)CO)C[C@@H]2C)cc1", "activity change (Venus) (%)": "-29.51"}
{"compound": "C[C@@H]1CN([C@@H](C)CO)C(=O)c2cc(Br)cnc2O[C@H]1CN(C)Cc1ccc(-c2ccccc2)cc1", "activity change (Venus) (%)": "-23.5"}
{"compound": "C[C@H]1CN([C@@H](C)CO)C(=O)c2cc(C#Cc3ccc(F)cc3)cnc2O[C@@H]1CN(C)C(=O)c1ccccc1F", "activity change (Venus) (%)": "-39.24"}

From PubChem BioAssay record AID1053133 (Broad Institute, 2014).